This passage reports binding results from PMC10689479.

Sequences of proteins named here, by UniProt entry; tags and fusion partners are left off. A change or cut given only in a name is not applied to a line headed by its entry. Residues count along the entry.
UniProt Q9BTC0: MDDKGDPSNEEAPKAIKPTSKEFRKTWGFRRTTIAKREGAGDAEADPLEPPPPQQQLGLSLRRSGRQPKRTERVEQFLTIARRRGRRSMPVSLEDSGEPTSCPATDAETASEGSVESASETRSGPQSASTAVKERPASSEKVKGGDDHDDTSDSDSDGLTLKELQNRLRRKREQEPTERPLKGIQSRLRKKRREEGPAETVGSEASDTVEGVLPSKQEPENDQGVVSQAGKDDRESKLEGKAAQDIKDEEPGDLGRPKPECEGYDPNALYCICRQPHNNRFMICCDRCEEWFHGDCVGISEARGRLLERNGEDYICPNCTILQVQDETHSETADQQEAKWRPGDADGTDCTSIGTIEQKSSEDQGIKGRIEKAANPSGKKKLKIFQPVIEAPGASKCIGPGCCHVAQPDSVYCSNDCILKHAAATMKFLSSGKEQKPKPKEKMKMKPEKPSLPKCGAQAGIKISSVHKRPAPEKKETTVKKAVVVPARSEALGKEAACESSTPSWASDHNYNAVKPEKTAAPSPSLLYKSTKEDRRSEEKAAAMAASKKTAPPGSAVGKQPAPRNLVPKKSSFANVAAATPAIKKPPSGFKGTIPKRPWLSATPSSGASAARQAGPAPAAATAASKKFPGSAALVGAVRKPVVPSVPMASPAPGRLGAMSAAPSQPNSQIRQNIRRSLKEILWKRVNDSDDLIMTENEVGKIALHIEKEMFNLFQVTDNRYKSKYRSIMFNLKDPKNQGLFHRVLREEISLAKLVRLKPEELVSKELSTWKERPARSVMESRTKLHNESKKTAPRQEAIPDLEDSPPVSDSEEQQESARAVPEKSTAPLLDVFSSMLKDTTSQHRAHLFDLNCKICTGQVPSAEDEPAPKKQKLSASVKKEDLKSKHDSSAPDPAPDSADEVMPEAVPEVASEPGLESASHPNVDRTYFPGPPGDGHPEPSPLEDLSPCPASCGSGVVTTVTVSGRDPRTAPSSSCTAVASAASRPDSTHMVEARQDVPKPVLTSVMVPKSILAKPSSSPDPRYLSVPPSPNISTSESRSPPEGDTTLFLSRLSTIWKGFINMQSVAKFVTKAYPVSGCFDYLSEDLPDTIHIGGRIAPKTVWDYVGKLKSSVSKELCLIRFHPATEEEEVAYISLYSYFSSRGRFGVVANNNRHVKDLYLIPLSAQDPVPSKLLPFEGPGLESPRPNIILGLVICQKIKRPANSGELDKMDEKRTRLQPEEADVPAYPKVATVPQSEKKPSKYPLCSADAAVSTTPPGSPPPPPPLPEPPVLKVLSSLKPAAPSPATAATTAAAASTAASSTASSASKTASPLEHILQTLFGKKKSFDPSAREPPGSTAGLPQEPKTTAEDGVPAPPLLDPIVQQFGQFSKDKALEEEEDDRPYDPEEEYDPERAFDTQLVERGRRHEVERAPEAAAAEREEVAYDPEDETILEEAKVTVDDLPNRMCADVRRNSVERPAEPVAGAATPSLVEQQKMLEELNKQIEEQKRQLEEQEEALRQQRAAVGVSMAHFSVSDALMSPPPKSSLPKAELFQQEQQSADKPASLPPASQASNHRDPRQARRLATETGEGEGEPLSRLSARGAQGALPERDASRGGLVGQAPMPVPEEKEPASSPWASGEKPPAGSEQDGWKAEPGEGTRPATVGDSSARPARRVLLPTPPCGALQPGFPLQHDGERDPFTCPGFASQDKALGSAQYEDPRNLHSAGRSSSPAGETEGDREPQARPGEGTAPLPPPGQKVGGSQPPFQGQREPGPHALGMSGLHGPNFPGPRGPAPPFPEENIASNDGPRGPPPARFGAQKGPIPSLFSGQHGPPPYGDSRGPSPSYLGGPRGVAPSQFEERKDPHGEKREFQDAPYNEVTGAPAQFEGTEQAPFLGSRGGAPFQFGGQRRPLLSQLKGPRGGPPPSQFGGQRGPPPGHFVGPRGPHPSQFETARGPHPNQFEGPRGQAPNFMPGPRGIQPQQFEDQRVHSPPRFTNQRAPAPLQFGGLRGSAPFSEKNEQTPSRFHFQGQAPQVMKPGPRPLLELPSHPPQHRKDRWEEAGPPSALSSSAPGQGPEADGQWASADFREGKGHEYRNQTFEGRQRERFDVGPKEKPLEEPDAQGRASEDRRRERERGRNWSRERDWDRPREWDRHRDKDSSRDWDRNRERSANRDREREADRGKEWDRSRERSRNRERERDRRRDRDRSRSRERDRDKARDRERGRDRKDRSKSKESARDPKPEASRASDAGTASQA
2xHA DIDO3 without the IDR (C-terminal truncation): residues 1-2084 of Q9BTC0
UniProt P09874: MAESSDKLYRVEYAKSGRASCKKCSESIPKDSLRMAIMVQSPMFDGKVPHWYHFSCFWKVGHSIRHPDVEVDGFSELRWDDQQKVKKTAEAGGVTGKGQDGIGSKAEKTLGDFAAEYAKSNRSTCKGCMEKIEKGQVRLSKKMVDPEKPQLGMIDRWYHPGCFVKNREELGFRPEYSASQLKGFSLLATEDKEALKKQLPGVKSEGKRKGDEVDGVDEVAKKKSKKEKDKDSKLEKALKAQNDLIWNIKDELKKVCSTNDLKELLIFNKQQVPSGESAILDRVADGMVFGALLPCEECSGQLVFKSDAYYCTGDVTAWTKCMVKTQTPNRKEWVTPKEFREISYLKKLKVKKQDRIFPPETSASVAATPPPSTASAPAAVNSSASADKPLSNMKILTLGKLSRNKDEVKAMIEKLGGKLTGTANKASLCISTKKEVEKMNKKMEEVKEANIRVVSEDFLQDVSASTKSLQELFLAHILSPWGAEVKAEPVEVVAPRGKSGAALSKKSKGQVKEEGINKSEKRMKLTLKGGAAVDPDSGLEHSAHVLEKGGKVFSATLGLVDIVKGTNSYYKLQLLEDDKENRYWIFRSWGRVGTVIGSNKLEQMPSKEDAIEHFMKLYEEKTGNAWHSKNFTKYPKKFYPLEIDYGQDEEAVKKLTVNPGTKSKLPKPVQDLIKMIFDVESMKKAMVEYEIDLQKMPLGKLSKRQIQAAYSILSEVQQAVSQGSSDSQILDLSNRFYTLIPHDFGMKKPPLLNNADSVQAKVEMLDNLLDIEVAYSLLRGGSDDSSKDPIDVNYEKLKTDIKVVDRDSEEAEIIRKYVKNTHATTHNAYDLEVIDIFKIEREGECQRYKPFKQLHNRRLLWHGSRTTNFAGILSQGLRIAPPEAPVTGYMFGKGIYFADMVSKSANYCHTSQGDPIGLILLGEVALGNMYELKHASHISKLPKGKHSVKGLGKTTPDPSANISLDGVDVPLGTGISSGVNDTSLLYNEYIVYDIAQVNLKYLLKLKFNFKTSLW
UniProt Q92576: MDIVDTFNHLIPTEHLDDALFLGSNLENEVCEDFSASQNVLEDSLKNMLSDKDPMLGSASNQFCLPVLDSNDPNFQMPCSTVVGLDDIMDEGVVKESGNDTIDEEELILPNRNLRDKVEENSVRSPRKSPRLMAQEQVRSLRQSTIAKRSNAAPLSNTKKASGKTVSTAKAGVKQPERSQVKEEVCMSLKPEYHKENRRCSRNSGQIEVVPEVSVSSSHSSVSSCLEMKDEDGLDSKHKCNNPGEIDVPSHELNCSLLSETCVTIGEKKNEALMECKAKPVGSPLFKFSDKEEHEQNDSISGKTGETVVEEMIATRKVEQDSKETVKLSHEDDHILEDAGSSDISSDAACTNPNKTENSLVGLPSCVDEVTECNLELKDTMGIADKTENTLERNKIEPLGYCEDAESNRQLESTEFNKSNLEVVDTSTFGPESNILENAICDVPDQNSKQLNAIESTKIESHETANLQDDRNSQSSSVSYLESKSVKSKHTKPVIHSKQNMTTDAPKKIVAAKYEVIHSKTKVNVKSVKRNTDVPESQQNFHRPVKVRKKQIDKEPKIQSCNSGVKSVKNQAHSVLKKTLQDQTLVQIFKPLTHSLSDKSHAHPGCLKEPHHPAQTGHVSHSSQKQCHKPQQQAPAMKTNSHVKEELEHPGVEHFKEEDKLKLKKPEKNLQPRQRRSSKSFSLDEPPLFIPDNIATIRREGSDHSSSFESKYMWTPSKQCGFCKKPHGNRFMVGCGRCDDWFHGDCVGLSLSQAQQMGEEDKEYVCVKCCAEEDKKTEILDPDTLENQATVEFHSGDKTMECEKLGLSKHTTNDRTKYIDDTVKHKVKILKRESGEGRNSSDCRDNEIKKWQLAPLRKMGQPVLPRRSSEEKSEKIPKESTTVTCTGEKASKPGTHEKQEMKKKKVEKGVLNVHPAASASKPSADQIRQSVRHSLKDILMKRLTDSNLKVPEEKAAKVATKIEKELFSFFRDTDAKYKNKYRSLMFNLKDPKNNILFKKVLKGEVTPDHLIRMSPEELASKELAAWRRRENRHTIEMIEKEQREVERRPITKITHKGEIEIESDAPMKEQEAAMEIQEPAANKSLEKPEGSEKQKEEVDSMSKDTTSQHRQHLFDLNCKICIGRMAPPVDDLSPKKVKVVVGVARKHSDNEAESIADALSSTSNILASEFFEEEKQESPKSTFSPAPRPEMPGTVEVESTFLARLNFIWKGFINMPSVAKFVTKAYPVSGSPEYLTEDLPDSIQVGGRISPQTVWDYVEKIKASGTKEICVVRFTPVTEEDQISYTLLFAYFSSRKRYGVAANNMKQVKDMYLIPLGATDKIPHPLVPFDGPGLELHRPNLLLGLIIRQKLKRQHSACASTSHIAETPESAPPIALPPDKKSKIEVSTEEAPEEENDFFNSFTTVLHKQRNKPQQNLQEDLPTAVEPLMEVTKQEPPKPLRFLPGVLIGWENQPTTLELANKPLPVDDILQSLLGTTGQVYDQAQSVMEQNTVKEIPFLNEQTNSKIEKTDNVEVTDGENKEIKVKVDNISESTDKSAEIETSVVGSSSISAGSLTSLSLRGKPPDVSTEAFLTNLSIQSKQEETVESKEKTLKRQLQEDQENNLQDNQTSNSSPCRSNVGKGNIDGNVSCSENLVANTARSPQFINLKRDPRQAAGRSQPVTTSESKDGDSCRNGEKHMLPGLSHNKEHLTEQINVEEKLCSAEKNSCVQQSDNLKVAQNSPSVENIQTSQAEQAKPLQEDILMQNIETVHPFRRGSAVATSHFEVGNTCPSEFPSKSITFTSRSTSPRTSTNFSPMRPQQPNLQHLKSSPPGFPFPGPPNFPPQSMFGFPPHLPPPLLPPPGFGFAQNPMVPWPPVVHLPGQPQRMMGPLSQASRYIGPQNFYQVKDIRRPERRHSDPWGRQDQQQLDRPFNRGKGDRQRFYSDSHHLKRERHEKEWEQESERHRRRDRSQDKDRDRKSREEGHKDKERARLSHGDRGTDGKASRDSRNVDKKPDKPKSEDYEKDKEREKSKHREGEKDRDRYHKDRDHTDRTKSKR
UniProt Q9H5H4: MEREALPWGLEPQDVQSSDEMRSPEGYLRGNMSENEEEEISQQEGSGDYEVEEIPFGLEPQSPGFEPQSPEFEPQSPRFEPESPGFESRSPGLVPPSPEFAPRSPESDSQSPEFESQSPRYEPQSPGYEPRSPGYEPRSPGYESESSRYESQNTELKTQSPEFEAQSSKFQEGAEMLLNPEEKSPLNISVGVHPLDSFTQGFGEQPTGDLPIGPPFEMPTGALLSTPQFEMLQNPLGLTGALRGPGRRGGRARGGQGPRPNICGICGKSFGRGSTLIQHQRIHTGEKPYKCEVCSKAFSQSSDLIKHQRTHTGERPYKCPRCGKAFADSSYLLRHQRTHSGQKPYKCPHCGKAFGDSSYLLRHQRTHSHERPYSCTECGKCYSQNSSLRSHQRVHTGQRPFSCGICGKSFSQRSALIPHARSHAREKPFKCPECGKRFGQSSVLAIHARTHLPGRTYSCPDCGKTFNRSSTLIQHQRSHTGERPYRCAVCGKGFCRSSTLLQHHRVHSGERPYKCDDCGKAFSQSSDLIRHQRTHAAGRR
UniProt O75367: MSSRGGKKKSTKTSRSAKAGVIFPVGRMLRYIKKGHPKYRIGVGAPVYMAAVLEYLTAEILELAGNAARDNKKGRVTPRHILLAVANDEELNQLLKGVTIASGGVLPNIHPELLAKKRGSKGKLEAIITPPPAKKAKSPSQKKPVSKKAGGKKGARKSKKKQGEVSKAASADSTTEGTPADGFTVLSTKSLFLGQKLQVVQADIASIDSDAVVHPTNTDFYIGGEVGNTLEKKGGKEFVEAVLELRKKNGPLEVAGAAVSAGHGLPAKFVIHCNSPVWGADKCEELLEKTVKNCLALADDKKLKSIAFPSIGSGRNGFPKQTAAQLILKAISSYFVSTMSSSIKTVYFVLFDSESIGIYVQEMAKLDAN

Results are given in words; binding and its absence hold for the method and conditions named. In cells and extracts the contact can be indirect. Some results given as binding are weak or reduced against the parent protein; the word gives no strength.

Assay [1] addresses 2xHA DIDO3 full-length (UniProt Q9BTC0). Nature of the assay: co-IP; anti-HA co-immunoprecipitation of 2xHA DIDO3 full-length, C-terminal constructs and C-terminal truncations, western blot; performed once. For orientation: In western blotting, separated proteins are transferred to a membrane and probed.
Assay [2] has as its target 2xHA DIDO3 without the IDR (C-terminal truncation) (UniProt Q9BTC0). Described as above.
Assay [3] deals with DIDO3 (endogenous) (human (endogenous in HEK293T)) (UniProt Q9BTC0). Nature of the assay: co-sedimentation; whole-cell lysate of wild-type HEK293T on a 15-40% sucrose gradient (50 mM Tris-Cl pH 8, 150 mM NaCl, 1% Triton, 1 mM DTT), 16 h at 4 °C; fractions by western blot; performed once.
The target of assay [4] is FLAG-DIDO3 (UniProt Q9BTC0). Nature of the assay: co-IP; anti-FLAG M2 magnetic beads on lysates of HEK293T transfected with FLAG-DIDO constructs (150 mM NaCl, 0.1% Triton, benzonase), eluted with 3xFLAG peptide, western blot with antibodies against mass spectrometry hits; performed once.

Consider “PARP1 (from UniProt P09874 1-1014) (enzyme)”, for which the binding entry in assay [1], in assay [2] and in assay [3] was “binds” throughout.

For the molecule “PHD finger protein 3 (PHF3), endogenous (from UniProt Q92576 1-2039)”, the binding result in assay [1], in assay [2], in assay [3] and in assay [4] was “binds” each time.

Regarding ZNF768 (from UniProt Q9H5H4 1-540), the binding result in assay [4] is “binds”.

For the molecule macroH2A.1 (from UniProt O75367 1-369), the binding result in assay [3] is on record as “binds”.

B1: DEK (protein, UniProt P35659 1-375)
chain: MSASAPAAEGEGTPTQPASEKEPEMPGPREESEEEEDEDDEEEEEEEKEKSLIVEGKREKKKVERLTMQVSSLQREPFTIAQGKGQKLCEIERIHFFLSKKKTDELRNLHKLLYNRPGTVSSLKKNVGQFSGFPFEKGSVQYKKKEEMLKKFRNAMLKSICEVLDLERSGVNSELVKRILNFLMHPKPSGKPLPKSKKTCSKGSKKERNSSGMARKAKRTKCPEILSDESSSDEDEKKNKEESSDDEDKESEEEPPKKTAKREKPKQKATSKSKKSVKSANVKKADSSTTKKNQNSSKKESESEDSSDDEPLIKKLKKPPTDEELKETIKKLLASANLEEVTMKQICKKVYENYPTYDLTERKDFIKTTVKELIS
For the molecule B1, the binding result in assay [3] is on record as “binds”.

B2: HCFC2 (protein, UniProt Q9Y5Z7 1-792)
chain: MAAPSLLNWRRVSSFTGPVPRARHGHRAVAIRELMIIFGGGNEGIADELHVYNTATNQWFLPAVRGDIPPGCAAHGFVCDGTRILVFGGMVEYGRYSNELYELQASRWLWKKVKPHPPPSGLPPCPRLGHSFSLYGNKCYLFGGLANESEDSNNNVPRYLNDFYELELQHGSGVVGWSIPVTKGVVPSPRESHTAVIYCKKDSGSPKMYVFGGMCGARLDDLWQLDLETMSWSKPETKGTVPLPRSLHTASVIGNKMYIFGGWVPHKGENTETSPHDCEWRCTSSFSYLNLDTTEWTTLVSDSQEDKKNSRPRPRAGHCAVAIGTRLYFWSGRDGYKKALNSQVCCKDLWYLDTEKPPAPSQVQLIKATTNSFHVKWDEVSTVEGYLLQLSTDLPYQAASSDSSAAPNMQGVRMDPHRQGSNNIVPNSINDTINSTKTEQPATKETSMKNKPDFKALTDSNAILYPSLASNASNHNSHVVDMLRKNEGPHTSANVGVLSSCLDVRTVIPETSVSSTVSSTQTMVTQQTIKTESSSTNGAVVKDETSLTTFSTKSEVDETYALPATKISRVETHATATPFSKETPSNPVATVKAGERQWCDVGIFKNNTALVSQFYLLPKGKQSISKVGNADVPDYSLLKKQDLVPGTGYRFRVAAINGCGIGPFSKISEFKTCIPGFPGAPSAVRISKNVEGIHLSWEPPTSPSGNILEYSAYLAIRTAQIQDNPSQLVFMRIYCGLKTSCIVTAGQLANAHIDYTSRPAIVFRISAKNEKGYGPATQVRWLQGNNKKAPLN
Consider B2, for which, in assay [4], the binding entry was “binds”.
